Test results reported in the supplement of paper PMC10849652.
The other results are listed elsewhere or left out.

The chains behind the UniProt entries cited, without tags or fusion partners. Where a name states a change or a piece, a line headed by the entry shows the natural chain unless it says otherwise.
UniProt Q9NZT2: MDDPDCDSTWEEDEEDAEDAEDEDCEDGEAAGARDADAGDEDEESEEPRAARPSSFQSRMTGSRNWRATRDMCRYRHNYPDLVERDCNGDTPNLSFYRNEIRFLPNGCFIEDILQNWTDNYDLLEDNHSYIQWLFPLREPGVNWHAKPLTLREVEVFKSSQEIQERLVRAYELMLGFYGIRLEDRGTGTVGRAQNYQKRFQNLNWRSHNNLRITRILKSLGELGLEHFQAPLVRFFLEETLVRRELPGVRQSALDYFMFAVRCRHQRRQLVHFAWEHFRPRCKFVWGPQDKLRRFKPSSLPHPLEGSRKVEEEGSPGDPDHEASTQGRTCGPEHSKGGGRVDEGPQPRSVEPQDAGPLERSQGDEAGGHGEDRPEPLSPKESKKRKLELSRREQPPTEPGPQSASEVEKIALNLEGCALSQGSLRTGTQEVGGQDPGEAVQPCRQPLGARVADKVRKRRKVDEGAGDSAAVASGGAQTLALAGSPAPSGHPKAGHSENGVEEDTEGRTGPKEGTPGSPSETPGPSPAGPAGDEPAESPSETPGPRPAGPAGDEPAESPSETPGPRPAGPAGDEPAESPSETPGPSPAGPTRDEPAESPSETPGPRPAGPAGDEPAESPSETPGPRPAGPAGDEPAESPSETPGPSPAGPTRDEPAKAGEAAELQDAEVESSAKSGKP
UniProt Q9BVL2: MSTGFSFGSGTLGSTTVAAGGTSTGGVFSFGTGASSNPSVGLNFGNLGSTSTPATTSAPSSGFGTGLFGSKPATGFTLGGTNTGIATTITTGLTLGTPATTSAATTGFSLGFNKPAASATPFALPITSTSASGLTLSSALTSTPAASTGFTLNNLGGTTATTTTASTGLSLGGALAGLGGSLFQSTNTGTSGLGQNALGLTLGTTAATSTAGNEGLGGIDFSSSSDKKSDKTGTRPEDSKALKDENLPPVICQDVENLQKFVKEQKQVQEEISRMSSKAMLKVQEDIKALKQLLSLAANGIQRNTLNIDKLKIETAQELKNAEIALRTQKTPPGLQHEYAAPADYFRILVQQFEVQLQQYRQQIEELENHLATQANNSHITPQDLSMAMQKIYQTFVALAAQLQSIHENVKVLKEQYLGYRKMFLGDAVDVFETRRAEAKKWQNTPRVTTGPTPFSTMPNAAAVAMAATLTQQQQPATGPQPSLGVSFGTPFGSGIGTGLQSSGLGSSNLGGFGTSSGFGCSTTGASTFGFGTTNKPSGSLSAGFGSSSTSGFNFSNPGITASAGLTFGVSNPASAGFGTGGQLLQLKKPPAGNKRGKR
UniProt Q96RD7, whole entry, looked up: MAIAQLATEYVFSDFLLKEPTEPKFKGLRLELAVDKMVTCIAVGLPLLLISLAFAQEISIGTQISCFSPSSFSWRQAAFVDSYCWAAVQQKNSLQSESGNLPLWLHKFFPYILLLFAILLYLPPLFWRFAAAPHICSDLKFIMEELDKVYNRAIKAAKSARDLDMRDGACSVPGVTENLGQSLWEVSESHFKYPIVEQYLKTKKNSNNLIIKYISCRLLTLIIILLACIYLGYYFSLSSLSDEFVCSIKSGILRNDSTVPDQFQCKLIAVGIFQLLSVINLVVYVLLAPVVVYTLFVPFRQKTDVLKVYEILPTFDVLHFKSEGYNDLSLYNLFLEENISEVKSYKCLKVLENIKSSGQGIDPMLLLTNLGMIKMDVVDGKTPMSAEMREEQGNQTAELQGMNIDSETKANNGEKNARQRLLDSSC
UniProt Q8N6M0: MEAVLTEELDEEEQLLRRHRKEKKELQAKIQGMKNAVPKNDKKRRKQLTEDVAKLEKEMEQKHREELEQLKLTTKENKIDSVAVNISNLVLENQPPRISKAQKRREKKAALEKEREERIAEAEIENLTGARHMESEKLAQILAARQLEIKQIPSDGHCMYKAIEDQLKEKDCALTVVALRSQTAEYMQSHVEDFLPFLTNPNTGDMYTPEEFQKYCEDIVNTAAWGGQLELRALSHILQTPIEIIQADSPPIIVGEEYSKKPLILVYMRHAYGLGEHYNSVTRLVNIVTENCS
UniProt Q86WC4: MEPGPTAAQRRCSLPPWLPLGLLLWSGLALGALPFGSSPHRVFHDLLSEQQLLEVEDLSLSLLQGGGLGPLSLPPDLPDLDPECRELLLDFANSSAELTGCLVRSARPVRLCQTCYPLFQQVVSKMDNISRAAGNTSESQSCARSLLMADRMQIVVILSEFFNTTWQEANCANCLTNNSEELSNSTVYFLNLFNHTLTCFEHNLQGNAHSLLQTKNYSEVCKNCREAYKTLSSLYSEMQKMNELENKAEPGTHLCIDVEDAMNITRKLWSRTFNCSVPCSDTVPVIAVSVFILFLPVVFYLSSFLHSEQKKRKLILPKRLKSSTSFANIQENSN
UniProt Q9Y5N6: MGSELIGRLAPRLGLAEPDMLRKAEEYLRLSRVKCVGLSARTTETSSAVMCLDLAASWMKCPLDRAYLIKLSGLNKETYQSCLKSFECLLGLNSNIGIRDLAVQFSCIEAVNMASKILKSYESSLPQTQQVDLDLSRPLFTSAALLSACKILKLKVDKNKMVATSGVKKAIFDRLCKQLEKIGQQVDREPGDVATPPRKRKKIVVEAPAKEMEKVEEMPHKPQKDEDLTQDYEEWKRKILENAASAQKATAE
UniProt Q8N573: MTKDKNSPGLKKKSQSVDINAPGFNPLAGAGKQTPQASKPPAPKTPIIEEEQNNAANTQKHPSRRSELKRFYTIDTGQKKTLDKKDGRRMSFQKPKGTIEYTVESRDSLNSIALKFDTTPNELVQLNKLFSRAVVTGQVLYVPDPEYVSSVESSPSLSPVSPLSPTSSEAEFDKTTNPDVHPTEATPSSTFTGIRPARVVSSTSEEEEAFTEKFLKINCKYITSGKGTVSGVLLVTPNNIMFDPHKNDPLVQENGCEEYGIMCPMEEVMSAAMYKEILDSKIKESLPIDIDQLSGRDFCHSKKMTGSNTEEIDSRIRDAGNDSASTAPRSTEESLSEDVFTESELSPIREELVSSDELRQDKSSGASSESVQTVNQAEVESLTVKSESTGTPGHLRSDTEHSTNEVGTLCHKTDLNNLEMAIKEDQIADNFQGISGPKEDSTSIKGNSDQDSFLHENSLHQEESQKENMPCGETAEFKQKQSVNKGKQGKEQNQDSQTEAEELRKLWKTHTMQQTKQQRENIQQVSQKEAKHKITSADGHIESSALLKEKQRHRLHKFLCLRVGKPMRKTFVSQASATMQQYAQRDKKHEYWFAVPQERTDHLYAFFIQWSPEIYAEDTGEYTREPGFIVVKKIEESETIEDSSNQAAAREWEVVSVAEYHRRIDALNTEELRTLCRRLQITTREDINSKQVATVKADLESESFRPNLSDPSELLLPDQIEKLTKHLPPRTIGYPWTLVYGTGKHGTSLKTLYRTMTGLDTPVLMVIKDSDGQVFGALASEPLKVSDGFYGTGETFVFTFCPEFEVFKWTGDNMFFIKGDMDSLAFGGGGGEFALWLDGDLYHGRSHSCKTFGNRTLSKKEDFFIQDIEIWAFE
UniProt Q96SU4: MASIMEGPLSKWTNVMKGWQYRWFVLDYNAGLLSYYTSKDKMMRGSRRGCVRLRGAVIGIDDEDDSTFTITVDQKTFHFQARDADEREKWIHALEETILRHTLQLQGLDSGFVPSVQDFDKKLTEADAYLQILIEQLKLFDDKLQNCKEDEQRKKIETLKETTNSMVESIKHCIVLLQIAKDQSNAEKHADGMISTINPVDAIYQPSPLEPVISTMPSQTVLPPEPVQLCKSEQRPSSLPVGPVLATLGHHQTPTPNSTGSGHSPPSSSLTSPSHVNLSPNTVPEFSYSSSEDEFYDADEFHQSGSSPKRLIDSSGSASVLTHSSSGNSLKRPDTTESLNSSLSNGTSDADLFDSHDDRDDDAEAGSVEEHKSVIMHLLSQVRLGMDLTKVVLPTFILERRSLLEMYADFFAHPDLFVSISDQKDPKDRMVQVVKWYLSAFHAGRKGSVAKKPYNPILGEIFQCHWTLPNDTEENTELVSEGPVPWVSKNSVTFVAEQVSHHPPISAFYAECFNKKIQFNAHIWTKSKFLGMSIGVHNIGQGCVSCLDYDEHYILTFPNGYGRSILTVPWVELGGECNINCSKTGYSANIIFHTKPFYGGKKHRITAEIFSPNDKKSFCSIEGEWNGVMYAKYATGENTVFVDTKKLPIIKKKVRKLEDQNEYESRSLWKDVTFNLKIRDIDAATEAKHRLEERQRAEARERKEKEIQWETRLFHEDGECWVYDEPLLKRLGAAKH

How the values were obtained:
Test in all cases: log2 fold change, soluble protein after heating vs DMSO (PISA); higher = thermal stabilisation; K562 lysate, 10 uM; active = over 0.2 and 3.5 SD of the protein, either way, in both replicates (recomputed)
[1] = compound: C1=CC=C(C=C1)[C@H](COC2=CC3=C(C=C2)NC(=O)N3)NC(=O)C4=CC=CN(C4=O)CC5=CC(=C(C=C5)F)F
Summary of the method: (§1)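 A 30 min treatment with 10 μM compound was applied to crude K562 extract at 1 mg/mL protein in PBS pH 7.4 with 1 mM MgCl2. Heating for 3 min spanned 48°C-58°C, after which aliquots were pooled, adjusted to 0.5% NP-40 at 4°C and spun at 21,000xg for 90 min. TMTpro 16plex LC-MS/MS of the supernatant, with channel sums equalised, gave values recorded as log-two fold change in thermal stability against solvent controls, from duplicates.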

[2] = compound: CC1=C(SC2=C1C(=N[C@H](C3=NN=C(N32)C)CC(=O)N)C4=CC=C(C=C4)Cl)C
Summary of the method: as §1

[3] = compound: CC1=C2C(=CC=C1)N=C(N(C2=O)C3=CC=CC=C3C)CN4C=NC5=C(N=CN=C54)N
Summary of the method: as §1

[4] = compound: Cc1sc2c(c1C)C(c1ccc(Cl)cc1)=N[C@@H](CC(=O)OC(C)(C)C)c1nnc(C)n1-2
Summary of the method: as §1

[5] = compound: c1ccc([C@@H]2C[C@H]2NC2CCNCC2)cc1
Summary of the method: as §1

Measured: log2 fold change

OGFR (UniProt Q9NZT2)
inactive: [1] -0.016 | [2] 0.001 | [3] 0.012 | [4] -0.038 | [5] 0.088

NUP58 (UniProt Q9BVL2)
inactive: [1] 0.047 | [2] -0.025 | [3] 0.039 | [4] -0.046 | [5] -0.053

PANX1 (UniProt Q96RD7)
inactive: [1] 0.123 | [2] 0.105 | [3] -0.056 | [4] -0.04 | [5] -0.018

OTUD6B (UniProt Q8N6M0)
inactive: [1] -0.057 | [2] -0.021 | [3] -0.027 | [4] 0.024 | [5] 0.083

OSTM1 (UniProt Q86WC4)
inactive: [1] -0.057 | [2] 0.019 | [3] 0.108 | [4] -0.014 | [5] -0.027

ORC6 (UniProt Q9Y5N6)
inactive: [1] 0.046 | [2] 0.019 | [3] -0.059 | [4] 0.006 | [5] 0.13

OXR1 (UniProt Q8N573)
inactive: [1] 0.106 | [2] 0.01 | [3] 0.019 | [4] -0.043 | [5] 0.021

OSBPL9 isoform 2 (UniProt Q96SU4)
inactive: [1] -0.052 | [2] 0.039 | [3] 0.002 | [4] 0.005 | [5] 0.005
